In paper PMC5727176:
No constants are given. Whether binding was seen depends on the method and setting. In cells and extracts the contact can be indirect. Some entries that bind do so weakly or less than the wild type. For some of these results: Tags and fused reporters may be left off the sequences shown. Blank lines part the entries; values can stand above or below the binder they belong to.

Tests used:
[1] = target: T1, FLAG–JunB (UniProt P09450); experiment: co-IP; HEK293T transfected with pcDNA3 encoding FLAG-tagged Jun family proteins and HA-tagged BATF, 24 h; anti-FLAG (M2) agarose; blot with anti-FLAG and anti-HA
T1 sequence: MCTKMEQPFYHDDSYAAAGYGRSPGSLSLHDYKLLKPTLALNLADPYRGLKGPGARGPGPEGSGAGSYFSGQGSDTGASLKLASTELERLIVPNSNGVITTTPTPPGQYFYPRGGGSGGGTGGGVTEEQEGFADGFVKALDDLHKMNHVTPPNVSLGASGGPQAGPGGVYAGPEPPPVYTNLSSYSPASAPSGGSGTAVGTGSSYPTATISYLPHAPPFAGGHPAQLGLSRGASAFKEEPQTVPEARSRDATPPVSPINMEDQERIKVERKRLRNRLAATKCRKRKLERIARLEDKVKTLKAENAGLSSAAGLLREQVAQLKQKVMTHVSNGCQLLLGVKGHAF

[2] = target: T2, JunB (construct of the in vitro binding assays) (UniProt P09450); experiment: pull-down; MBP-fusion protein on amylose resin mixed with in vitro translated FLAG-tagged protein; 150 mM NaCl, 5% glycerol, 1 mM DTT, 1 mM EDTA, 25 mM Tris-Cl pH 8.0, 1 h at 4 °C; eluted with 20 mM maltose; anti-FLAG blot; which partner was the MBP fusion is not told; only the target purified
T2 sequence: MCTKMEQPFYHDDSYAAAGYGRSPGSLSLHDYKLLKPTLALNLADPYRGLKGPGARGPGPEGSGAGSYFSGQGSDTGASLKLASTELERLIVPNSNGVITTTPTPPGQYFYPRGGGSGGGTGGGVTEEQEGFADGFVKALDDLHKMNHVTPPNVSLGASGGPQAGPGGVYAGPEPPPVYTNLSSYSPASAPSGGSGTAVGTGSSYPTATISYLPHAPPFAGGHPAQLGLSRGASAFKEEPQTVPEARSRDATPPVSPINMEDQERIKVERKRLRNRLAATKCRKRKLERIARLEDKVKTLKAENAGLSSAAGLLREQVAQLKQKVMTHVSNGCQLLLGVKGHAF

[3] = target: T3, FLAG–JunD, P15066; experiment: co-IP; HEK293T transfected with pcDNA3 encoding FLAG-tagged Jun family proteins and HA-tagged BATF, 24 h; anti-FLAG (M2) agarose; blot with anti-FLAG and anti-HA; conditions: remark: other sources report otherwise
T3 chain: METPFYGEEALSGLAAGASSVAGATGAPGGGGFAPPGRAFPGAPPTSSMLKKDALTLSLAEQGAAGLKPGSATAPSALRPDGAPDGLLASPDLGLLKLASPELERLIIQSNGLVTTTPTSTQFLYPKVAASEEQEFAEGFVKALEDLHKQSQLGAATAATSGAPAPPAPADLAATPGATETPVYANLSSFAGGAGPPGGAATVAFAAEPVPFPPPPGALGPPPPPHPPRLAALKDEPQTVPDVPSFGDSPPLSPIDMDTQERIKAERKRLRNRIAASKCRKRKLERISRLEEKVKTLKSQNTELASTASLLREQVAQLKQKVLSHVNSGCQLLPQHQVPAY

[4] = target: T4, FLAG–c-Jun, P05627; experiment: as above; conditions: remark: other sources report otherwise
T4 chain: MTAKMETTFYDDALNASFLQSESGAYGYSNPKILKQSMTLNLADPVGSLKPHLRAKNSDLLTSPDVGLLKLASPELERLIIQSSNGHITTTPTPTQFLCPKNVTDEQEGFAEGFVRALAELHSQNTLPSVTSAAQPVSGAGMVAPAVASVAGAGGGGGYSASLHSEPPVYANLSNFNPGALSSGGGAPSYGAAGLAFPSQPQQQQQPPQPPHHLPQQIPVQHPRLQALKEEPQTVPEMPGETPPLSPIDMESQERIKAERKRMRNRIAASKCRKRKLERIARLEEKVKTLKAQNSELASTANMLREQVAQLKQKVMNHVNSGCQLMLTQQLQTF

[5] = target: T5, JunD (construct of the in vitro binding assays), P15066; experiment: pull-down; MBP-fusion protein on amylose resin mixed with in vitro translated FLAG-tagged protein; 150 mM NaCl, 5% glycerol, 1 mM DTT, 1 mM EDTA, 25 mM Tris-Cl pH 8.0, 1 h at 4 °C; eluted with 20 mM maltose; anti-FLAG blot; which partner was the MBP fusion is not told; only the target purified; conditions: remark: other sources report otherwise
T5 chain: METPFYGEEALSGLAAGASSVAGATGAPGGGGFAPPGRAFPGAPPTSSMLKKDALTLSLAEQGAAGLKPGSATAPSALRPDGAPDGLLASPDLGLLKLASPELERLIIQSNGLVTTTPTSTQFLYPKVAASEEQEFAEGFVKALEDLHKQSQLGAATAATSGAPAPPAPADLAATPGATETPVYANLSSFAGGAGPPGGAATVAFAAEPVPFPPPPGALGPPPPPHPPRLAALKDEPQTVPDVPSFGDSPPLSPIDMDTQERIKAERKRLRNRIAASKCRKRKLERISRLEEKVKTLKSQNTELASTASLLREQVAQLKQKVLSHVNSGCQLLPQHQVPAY

[6] = target: T6, c-Jun (construct of the in vitro binding assays), P05627; experiment: as above; conditions: remark: other sources report otherwise
T6 chain: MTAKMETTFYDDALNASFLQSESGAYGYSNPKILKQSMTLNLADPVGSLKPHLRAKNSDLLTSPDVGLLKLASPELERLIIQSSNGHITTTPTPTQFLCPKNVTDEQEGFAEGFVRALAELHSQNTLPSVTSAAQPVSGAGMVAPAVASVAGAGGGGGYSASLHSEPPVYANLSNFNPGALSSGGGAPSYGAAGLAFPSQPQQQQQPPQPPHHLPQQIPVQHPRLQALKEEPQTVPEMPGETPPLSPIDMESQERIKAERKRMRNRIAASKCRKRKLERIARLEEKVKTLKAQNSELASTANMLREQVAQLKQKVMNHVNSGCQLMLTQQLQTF

[7] = target: T7, IκBζ (construct of the in vitro binding assays) (UniProt Q9EST8); experiment: as above
T7 sequence: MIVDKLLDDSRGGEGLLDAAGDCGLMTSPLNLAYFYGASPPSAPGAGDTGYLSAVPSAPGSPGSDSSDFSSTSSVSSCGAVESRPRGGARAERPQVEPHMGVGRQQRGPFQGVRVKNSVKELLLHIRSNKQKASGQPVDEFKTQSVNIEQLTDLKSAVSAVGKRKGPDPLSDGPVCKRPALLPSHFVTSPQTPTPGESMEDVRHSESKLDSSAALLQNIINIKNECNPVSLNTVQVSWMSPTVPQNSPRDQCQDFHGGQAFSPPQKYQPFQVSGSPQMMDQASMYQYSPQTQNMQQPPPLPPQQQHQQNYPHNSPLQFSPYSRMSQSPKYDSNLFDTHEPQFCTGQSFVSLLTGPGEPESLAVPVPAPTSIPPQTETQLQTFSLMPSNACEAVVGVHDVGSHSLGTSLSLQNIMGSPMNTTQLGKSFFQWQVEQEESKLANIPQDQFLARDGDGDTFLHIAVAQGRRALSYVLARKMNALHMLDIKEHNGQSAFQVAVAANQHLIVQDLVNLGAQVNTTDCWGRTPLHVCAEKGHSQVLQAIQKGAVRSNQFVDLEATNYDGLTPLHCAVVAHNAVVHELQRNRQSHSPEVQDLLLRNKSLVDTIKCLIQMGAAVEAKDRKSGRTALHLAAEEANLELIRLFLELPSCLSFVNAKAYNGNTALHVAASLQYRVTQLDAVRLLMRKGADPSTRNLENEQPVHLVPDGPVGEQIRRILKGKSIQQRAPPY

B1: haemagglutinin (HA)-tagged BATF (protein, UniProt O35284 1-125)
chain: MPHSSDSSDSSFSRSPPPGKQDSSDDVRKVQRREKNRIAAQKSRQRQTQKADTLHLESEDLEKQNAALRKEIKQLTEELKYFTSVLSSHEPLCSVLASGTPSPPEVVYSAHAFHQPHISSPRFQP
binding [1]: binds

binding [2]: binds
B2: BATF (construct of the in vitro binding assays) (protein, UniProt O35284 1-125)
chain: MPHSSDSSDSSFSRSPPPGKQDSSDDVRKVQRREKNRIAAQKSRQRQTQKADTLHLESEDLEKQNAALRKEIKQLTEELKYFTSVLSSHEPLCSVLASGTPSPPEVVYSAHAFHQPHISSPRFQP

B3: haemagglutinin (HA)-tagged BATF, O35284 1-125 (protein)
chain: MPHSSDSSDSSFSRSPPPGKQDSSDDVRKVQRREKNRIAAQKSRQRQTQKADTLHLESEDLEKQNAALRKEIKQLTEELKYFTSVLSSHEPLCSVLASGTPSPPEVVYSAHAFHQPHISSPRFQP
binding [3]: binds | binding [4]: binds

binding [5]: binds | binding [6]: binds
B4: BATF (construct of the in vitro binding assays), O35284 1-125 (protein)
chain: MPHSSDSSDSSFSRSPPPGKQDSSDDVRKVQRREKNRIAAQKSRQRQTQKADTLHLESEDLEKQNAALRKEIKQLTEELKYFTSVLSSHEPLCSVLASGTPSPPEVVYSAHAFHQPHISSPRFQP

binding [7]: binds
B5: JunB (construct of the in vitro binding assays) (protein, UniProt P09450 1-344)
chain: MCTKMEQPFYHDDSYAAAGYGRSPGSLSLHDYKLLKPTLALNLADPYRGLKGPGARGPGPEGSGAGSYFSGQGSDTGASLKLASTELERLIVPNSNGVITTTPTPPGQYFYPRGGGSGGGTGGGVTEEQEGFADGFVKALDDLHKMNHVTPPNVSLGASGGPQAGPGGVYAGPEPPPVYTNLSSYSPASAPSGGSGTAVGTGSSYPTATISYLPHAPPFAGGHPAQLGLSRGASAFKEEPQTVPEARSRDATPPVSPINMEDQERIKVERKRLRNRLAATKCRKRKLERIARLEDKVKTLKAENAGLSSAAGLLREQVAQLKQKVMTHVSNGCQLLLGVKGHAF
